The other results are listed elsewhere or left out.
Test system: T1, CTL2-GFP (C. trachomatis L2/434/Bu, GFP-expressing)
T1 construct: L2/434/Bu, GFP-expressing
Design: species or system HeLa; Intracellular C. trachomatis growth in HeLa cells, bulk GFP fluorescence relative to DMSO
Settings: bulk GFP, single well; 28.5 h, 10 µM; inhibitor

Structure (SMILES)	% of control remaining [%]
O=C(O)C(=N\Nc1ccccc1)/C(=N/Nc1ccccc1)C(=O)O [CBK278303N]	107.806
O=C(CSc1ccccc1)c1ccccc1 [CBK002224]	161.207
COCC(C)NS(=O)(=O)c1cc(C)ccc1OC (stereo not shown) [CBK270037]	132.31
COc1ccccc1-c1nccnc1OCCn1cccc1 [CBK106820]	162.024
CS(=O)(=O)N1CCCC(C(=O)Nc2ccc(S(N)(=O)=O)cc2)C1 (stereo not shown) [CBK268490]	106.688
O=C(NCCc1cccs1)Nc1ccc2c(c1)C(F)(F)OC(F)(F)O2 [CBK045255]	99.6682
CS(=O)(=O)N1CC2(CCN(Cc3ccc4nsnc4c3)CC2)c2ccccc21 [CBK136957]	115.283
Oc1ccc(Nc2cc(-c3ccccc3)ncn2)cc1 [CBK291157]	99.3259
CC(NC1CCCN(c2ccc(C#N)cc2)C1=O)c1cncc(F)c1 (stereo not shown) [CBK306404]	126.335
CN(C)CC(C)(C)CNC(=O)C1(c2ccccc2)CCCC1 [CBK149532]	87.0361
CC1(C)OC(N2CCN(Cc3ccccc3)CC2)=Nc2ccccc21 [CBK023933C]	123.525
Cc1nn(CC(=O)Nc2ccc3c(c2)nc(CN2CCCC2)n3C)c(=O)c2ccccc12 [CBK268465]	129.35
O=C(O)CCC(=O)Nc1ccc(S(=O)(=O)Nc2ccc(I)cc2)cc1 [CBK264866]	32.7932
CCn1cc(CN2CCCCCC2c2cc(C)no2)c(C)n1 (stereo not shown) [CBK282159]	162.766
Cc1ccn2c(-c3csc(Nc4ccc(S(N)(=O)=O)cc4)n3)c(C)nc2c1 [CBK263304B]	69.8048
O=C(Nc1ccncc1)c1ccc(S(=O)(=O)N2CCCC2)cc1 [CBK287786]	100.454
Cc1ccc(-n2c(O)nnc2-c2ccc(Cl)c(Cl)c2)cc1 [CBK074887]	109.042
O=C1c2ccc(-n3c(=O)c4cc5c(=O)n(-c6ccc7c(c6)C(=O)N(c6ccccc6)C7=O)c(=O)c5cc4c3=O)cc2C(=O)N1c1ccccc1 [CBK262136]	111.134
Cc1ccc(S(=O)(=O)Nc2ccc(N3C[C@@H](C)N[C@@H](C)C3)c3ccccc23)cc1 [CBK001486C]	82.3799
CC(C)NC1=NC(=O)C(CC(=O)Nc2ccccc2)S1 (stereo not shown) [CBK013880]	108.506
Fc1ccc(CN2CCC(c3n[nH]c4ncccc34)CC2)cc1 [CBK284902]	117.51
COc1ccc2c(c1)C(=O)NC1(CCN(C(=O)c3ccc(OC)c(C)c3)CC1)O2 [CBK166291]	153.754
O=C(CSCc1c(F)cccc1Cl)Nc1ccc(S(=O)(=O)N2CCCCC2)cc1 [CBK268034]	42.6353
Cc1ccc2cc(CN(Cc3ccccc3)S(C)(=O)=O)c(O)nc2c1 [CBK269329]	162.124
O=c1n(Cc2ccccn2)c2cccnc2n1Cc1cccs1 [CBK283867]	115.542
Cc1ccc(C#N)cc1S(=O)(=O)NC1CC(=O)c2ccccc21 (stereo not shown) [CBK304030]	97.0188
O=C(Cc1ccncc1)NC1Cc2ccccc2C1 [CBK200351]	103.982

Exported comma-delimited: part of the list above.
Structure (SMILES),% of control remaining [%]
COc1ccc2c(c1)C(=O)NC1(CCN(C(=O)c3ccc(OC)c(C)c3)CC1)O2 [CBK166291],153.754
O=C(CSCc1c(F)cccc1Cl)Nc1ccc(S(=O)(=O)N2CCCCC2)cc1 [CBK268034],42.6353
Cc1ccc2cc(CN(Cc3ccccc3)S(C)(=O)=O)c(O)nc2c1 [CBK269329],162.124

Next part

Structure (SMILES)	% of control remaining [%]
Cc1c(C(=O)Nc2ccccn2)sc2nc(-c3ccccc3)cn12 [CBK287501]	176.743
CCOC(=O)c1cccnc1-c1ccc(S(C)(=O)=O)cc1 [CBK149242]	79.3737
CN(C)CCN(Cc1ccccc1)C(=O)Nc1cccnc1 [CBK145047]	143.112
CCn1nc(C)c(-c2cncn2CC(C)N2CCC(C)CC2)c1C (stereo not shown) [CBK281593]	123.48
COc1ccc(-c2cc3cccnc3n2CC(=O)N2CCCC2)cc1 [CBK285379]	117.759
O=C(Nc1ccc(S(=O)(=O)N2CCOCC2)cc1)c1cc(-c2ccccc2)nc2ccccc12 [CBK264790]	112.437
COc1ccc2c(c1)-c1c(ss/c1=N\c1ccc(S(N)(=O)=O)cc1)C(C)(C)N2 [CBK263339]	67.1629
CCOC(=O)C1CCN(S(=O)(=O)c2ccc(Cl)s2)CC1 [CBK096109]	95.1372
O=C(NCc1cccnc1)c1ccc(CSc2ccccc2)cc1 [CBK300544]	104.411
CC(C)N(CCOc1nccnc1-c1cnn(C)c1)C(C)C [CBK107084]	87.0877
Cn1ncc(N2CCC(CNC(=O)c3cc(F)ccc3Cl)C2)cc1=O (stereo not shown) [CBK307286]	96.9935
Cn1nnnc1SCCNC(=O)Nc1ccc(CN2CCOCC2)cc1 [CBK307084]	135.721
CCn1cc(CN2CCCN(C(=O)c3cc(Cl)c[nH]3)CC2)cn1 [CBK306153]	152.878
CC(=O)C1=C(O)C(=O)N(CCCO)C1c1cccc([N+](=O)[O-])c1 (stereo not shown) [CBK263753]	100
COc1ccc(-n2c3c(cc(C(=O)Nc4ccccc4Br)c2=O)C(=O)CCC3)cc1 [CBK293945]	168.742
O=C(c1ccco1)N1CCN(c2ncccn2)CC1 [CBK144524]	145.611
O=S(=O)(Cc1ccc(Br)cc1)c1cc2c(N3CCNCC3)nccc2s1 [CBK045688C]	121.789
c1ccc2c(c1)CCCN2CCc1c[nH]c2ccccc12 [CBK138330]	147.014
Cc1noc(C)c1CC(=O)NC(C)CCc1ccc(F)cc1 (stereo not shown) [CBK281511]	129.145
O=C(O)C(CC(=O)N1CCOCC1)NCc1ccccc1 (stereo not shown) [CBK267000]	124.382
O=C(O)c1cc(-n2c(S)nnc2-c2ccc3ccccc3n2)ccc1Cl [CBK269512]	142.619
CC(=O)Nc1nc(OCCN2CCCC2=O)cnc1/C=C\c1ccccc1 [CBK145371]	114.519
O=C(O)/C(O)=C/C(=O)c1ccc(Cl)cc1 [CBK261841]	105.969
C=CCNC(=O)C1(Cc2ccccc2-c2cccnc2)CCOCC1 [CBK285217]	104.041
Cc1cccc(NC(=O)c2ccc3n[nH]c(=S)n3c2)c1 [CBK288389]	135.628
Cc1cc2c(cc3c(=O)n(CC(=O)NC(C)(C)C)nc(C)n32)s1 [CBK284070]	130.357
CCCS(=O)(=O)n1c(=O)n(CC(=O)c2ccc(N(CC)CC)cc2)c2ccccc21 [CBK106504]	102.76

Structure (SMILES)	% of control remaining [%]
N/C(=N\OC(=O)COc1ccc2ccccc2c1)c1ccncc1 [CBK263737]	104.673
CC(C)N(C(=O)N1CCC2(CC1)CC(=O)c1ccccc1O2)C(C)C [CBK284010]	96.0367
O=C(CCC(=O)OCN1C(=O)c2ccccc2C1=O)Nc1ccc2ccccc2c1 [CBK265277]	132.17
COc1ccccc1-c1nnc(NCc2ccc3c(c2)OCO3)nc1-c1ccccc1OC [CBK286284]	100.458
O=C(Nc1ccc(Br)cc1)C1CCCN1S(=O)(=O)c1ccc(Cl)cc1 (stereo not shown) [CBK155481]	112.857
O=C(C1CC1)N1CCC(c2nnc(-c3ccsc3)o2)CC1 [CBK283376]	129.493
Cc1nn(-c2ccc(C(=O)O)cc2)c2c1C(=O)CC(C)(C)C2 [CBK286734]	133.197
CSCCCNC(=O)N(CCc1ccccc1)Cc1ccccc1 [CBK155317]	116.456
Nc1nc(OCCN2CCOCC2)cnc1-c1cc(Cl)cc(Cl)c1 [CBK145198]	82.247
COc1ccc([C@@]23CC[C@@H](NC(=O)c4cccc(Cl)c4)C[C@@H]2N(C)CC3)cc1OC [CBK073982T]	98.4929
Cc1nc(C)c(C(=O)N2CCCC(C(=O)c3ccc(F)cc3)C2)s1 (stereo not shown) [CBK305296]	115.144
COCCC1CN(c2nc(N(C)C)nc3c2CCN(C(C)=O)C3)CCO1 (stereo not shown) [CBK307464]	144.177
NCC(=O)Nc1ccc(Br)cc1C(=O)c1ccccc1Cl [CBK264692B]	103.929
Cc1cccc2cc3c(nc12)OCC(=O)N(Cc1ccco1)C3 [CBK283816]	87.9842
COc1ccc([C@@]23CC[C@@H](NC(=O)Nc4nc(Cl)cc(Cl)n4)C[C@@H]2N(C)CC3)cc1OC [CBK067083T]	102.581
Cc1nn(C)c(Oc2ccccc2OCc2ccccc2)c1[N+](=O)[O-] [CBK000281]	112.955
C[S+]([O-])CCNC(=O)c1cc(-c2cccs2)no1 (stereo not shown) [CBK282563]	112.175
O=C(O)C1CCN(C(=O)[C@@H]2Cc3ccccc3CN2)CC1 [CBK286638]	93.4726
O=C1NC(c2ccccc2)Cc2onc(-c3ccccc3)c21 (stereo not shown) [CBK004409]	86.2186
Fc1ccccc1-c1cn2ccnc2c(NCCc2cccnc2)n1 [CBK037473]	154.399
N#CCCCN1CCN(c2nccnc2OCc2ccc(Cl)c(Cl)c2)CC1 [CBK083086T]	104.186
NS(=O)(=O)c1cccc(NC(=O)COc2ccc([N+](=O)[O-])cc2)c1 [CBK263624]	108.36
CN(C1=NS(=O)(=O)c2ccccc21)c1ccc(OC(=O)C2CC(=O)N(c3ccccc3)C2)cc1 (stereo not shown) [CBK263849]	125.616
CS(=O)(=O)c1nnn(CC#N)n1 [CBK026075]	104.539
Cc1cccc(C)c1OCCOCC(O)CN1CCN(C)CC1 (stereo not shown) [CBK278206C]	117.983

— article PMC12040169 (PLOS Biology, 2025)
